Reference: the supplement of paper PMC4749390
Structures can show the parent of a compound that is named as a salt. The list shows a part of the results. This data set is noisy: repeats of one test often differ as much as different tests do.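 JEG3 cells stably carry tetracycline-induced wild-type human LRH-1, a heavily sumoylated nuclear receptor. APOC3 and MUC1 are SUMO-sensitive transcripts, raised by SUMO-less LRH-1 or UBC9 knockdown, measured by RT-qPCR against TBP and DMSO controls. A robust Z-score above +2 or below -2 marked a primary hit before toxicity and TBP filtering.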

Tested on: JEG3 expressing hLRH-1
Test: MUC1 transcript change (ddCt vs TBP and DMSO), Z-score over library; higher = higher MUC1 expression
Conditions: 10 µM; time (hr): 24

In order of rising “MUC1 transcript change (Z-score)” value:
1. CC(C)CCCC(C)N (configuration not stated) [octodrine]  -1.49
2. NC(=O)c1ncn([C@@H]2O[C@H](CO)[C@@H](O)[C@H]2O)n1 [ribavirin]  -1.38
3. C[C@]12C=CC(=O)C=C1CC[C@H]1[C@@H]3C[C@@H](O)[C@](O)(C(=O)CO)[C@@]3(C)C[C@H](O)[C@@]12F [triamcinolone]  -1.36
4. C[N+](C)(CCOc1ccccc1)Cc1ccccc1 [bephenium hydroxynapthoate]  -1.06
5. CN(C)CCOC(c1ccccc1)c1ccccc1 [Diphenhydramine hydrochloride]  -0.924
6. Cc1cc(-n2c(=O)[nH]c(=O)n(C)c2=O)ccc1Oc1ccc(SC(F)(F)F)cc1 [toltrazuril]  -0.804
7. Cn1c(=O)c2c(ncn2CC(O)CO)n(C)c1=O (configuration not stated) [dyphylline]  -0.779
8. C[C@@H]1O[C@@H](OC[C@H]2O[C@@H](Oc3c(-c4ccc(OCCO)c(OCCO)c4)oc4cc(OCCO)cc(O)c4c3=O)[C@H](O)[C@@H](O)[C@@H]2O)[C@H](O)[C@H](O)[C@H]1O [troxerutin]  -0.631
9. C[C@H](N[C@@H](CCc1ccccc1)C(=O)O)C(=O)N1Cc2ccccc2C[C@H]1C(=O)O [quinaprilat]  -0.449
10. CO[C@@]1(NC(=O)C2SC(=C(C(N)=O)C(=O)O)S2)C(=O)N2C(C(=O)O)=C(CSc3nnnn3C)CS[C@@H]21 (some centres not stated) [cefotetan]  -0.392
11. CN1CCN(CCCN2c3ccccc3Sc3ccc(Cl)cc32)CC1 [Prochlorperazine dimaleate]  -0.367
12. O=c1c(Cc2c(O)oc3ccccc3c2=O)c(O)oc2ccccc12 [dicumarol]  -0.294
13. CCCCCC(=O)O[C@]1(C(C)=O)CC[C@H]2[C@@H]3CCC4=CC(=O)CC[C@]4(C)[C@H]3CC[C@@]21C [hydroxyprogesterone caproate]  -0.253
14. NCCNCCNCCN [trientine hydrochloride]  -0.177
15. O=C(CCCCCCC(=O)Nc1ccccc1)NO [vorinostat]  -0.152
16. CC[N+](C)(CC)CCOC(=O)C(O)(c1ccccc1)C1CCCCC1 (configuration not stated) [oxyphenonium bromide]  -0.0125
17. CC12CCC3C(=CCc4cc(O)ccc43)C1CCC2=O (configuration not stated) [equilin]  0.0588
18. Oc1ccnc(S)n1 [2-thiouracil]  0.0696
19. CN1CCc2c(c3ccccc3n2Cc2ccccc2)C1 [mebhydrolin naphthalenesulfonate]  0.101
20. CCN(CC)CCOC(=O)c1ccc(N)cc1 [procaine hydrochloride]  0.105
21. O=C1C(=O)C([C@H]2CC[C@H](c3ccc(Cl)cc3)CC2)=C(O)c2ccccc21 [atovaquone]  0.132
22. COc1ccc(C(=O)CC(=O)c2ccc(C(C)(C)C)cc2)cc1 [avobenzone]  0.138
23. CC/C(=C(\c1ccccc1)c1ccc(OCCN(C)C)cc1)c1ccccc1 [Tamoxifen citrate]  0.145
24. Cc1cc(C)cc(OCC2CNC(=O)O2)c1 (configuration not stated) [metaxalone]  0.146
25. Cc1ccc(C(=O)C(C)CN2CCCCC2)cc1 (configuration not stated) [tolperisone hydrochloride]  0.219
26. COc1cc2ncnc(Nc3ccc(F)c(Cl)c3)c2cc1OCCCN1CCOCC1 [gefitinib]  0.317
27. CCO/C(O)=C1\C(COCCN)=NC(C)=C(C(=O)OC)C1c1ccccc1Cl (configuration not stated) [amlodipine besylate]  0.368
28. CNC[C@H](O)[C@@H](O)[C@H](O)[C@H](O)CO [meglumine]  0.415
29. CC(=O)N[C@@H](CS)C(=O)O [acetylcysteine]  0.448
30. Cc1ccnc(NS(=O)(=O)c2ccc(N)cc2)n1 [sulfamerazine]  0.46
31. CCN(CC)CCOC(=O)C1(C2CCCCC2)CCCCC1 [dicyclomine hydrochloride]  0.465
32. CC(C)NC[C@H](O)COc1cccc2ccccc12 [dexpropranolol hydrochloride]  0.479
33. CC(C)N1CCN(c2ccc(OC[C@H]3CO[C@](Cn4cncn4)(c4ccc(Cl)cc4Cl)O3)cc2)CC1 [terconazole]  0.612
34. CC(C(=O)O)c1cccc(CC2CCCC2=O)c1 (configuration not stated) [loxoprofen]  0.642
35. CCCCc1nc(Cl)c(CO)n1Cc1ccc(-c2ccccc2-c2nn[nH]n2)cc1 [losartan]  0.656
36. CC(=O)N[C@@H](CC(=O)O)C(=O)N[C@@H](CCC(=O)O)C(=O)O [spaglumic acid]  0.663
37. CC(C)(C)CC(C)(C)c1cc(Cc2cc(C(C)(C)CC(C)(C)C)cc(-n3nc4ccccc4n3)c2O)c(O)c(-n2nc3ccccc3n2)c1 [bisoctrizole]  0.724
38. CCC(=O)O[C@H](CC(=O)O)C[N+](C)(C)C [levocarnitine propionate hydrochloride]  0.735
39. CC(=O)O[C@H]1C[C@@]2(C)[C@@H](C[C@@H](O)[C@H]3[C@@]4(C)CC[C@@H](O)[C@@H](C)[C@@H]4CC[C@@]32C)/C1=C(\CCC=C(C)C)C(=O)O [fusidic acid]  0.755
40. CNCCC(Oc1ccc(C(F)(F)F)cc1)c1ccccc1 (configuration not stated) [Fluoxetine hydrochloride]  0.869
41. Cc1c(OCC(F)(F)F)ccnc1CS(=O)c1nc2ccccc2[nH]1 (configuration not stated) [lansoprazole]  0.888
42. CCC(=O)O[C@H]1[C@H](O[C@@H]2[C@@H](C)[C@H](O[C@H]3C[C@@](C)(OC)[C@@H](O)[C@H](C)O3)[C@@H](C)C(=O)O[C@H](CC)[C@@](C)(O)[C@H](O)[C@@H](C)C(=O)[C@H](C)C[C@@]2(C)O)O[C@H](C)C[C@@H]1N(C)C [erythromycin estolate]  0.901
43. CN1C(C(=O)Nc2ccccn2)=C(O)c2ccccc2S1(=O)=O [piroxicam]  0.905
44. NCCCC(O)(P(=O)(O)O)P(=O)(O)O [alendronate sodium]  0.947
45. O=C(CCNNC(=O)c1ccncc1)NCc1ccccc1 [Nialamide]  0.957
46. CC[N+](CC)(CC(=O)Nc1c(C)cccc1C)Cc1ccccc1 [denatonium benzoate]  1.03
47. C[C@@H](O)[C@H]1C(=O)N2C(C(=O)O)=C(S[C@@H]3CN[C@H](C(=O)N(C)C)C3)[C@H](C)[C@H]12 [meropenem]  1.09
